Test results reported in US20100093064A1, “Metagenomic Functional Selection” (PRESIDENT AND FELLOWS OF HARVARD COLLEGE, priority 2008, published 2010).
Some results were stated once for a whole list of compounds, not compound by compound. At least one compound was matched to its structure with a doubt left.

Tested on: oral and gut human-associated microbiome isolates
Assay: Antibiotic resistance profiling of human-associated microbiome isolates
Format: cell-based, bacteria isolated from human sputum and fecal samples
Conditions: for Oral microbiome isolates susceptible: O1, O2, O3 isolates; for Oral microbiome isolates susceptible / Gut microbiome isolates whose growth was prevented: 20 mg/L; for Microbiome isolates resistant, on average: 1102 oral and gut isolates, antibiotic 20 mg/L in LB; for Gut microbiome isolates whose growth was prevented: G1, G2 isolates
Description: Three sputum samples (oral microbiomes) and two fecal samples (gut microbiomes) were collected from three healthy volunteers at three different sampling times (day 1, 140 and 141), and fresh samples were plated on Luria broth (LB) agar. […]. Cultures were incubated for 16 hours at 37° C. and growth was assayed by absorption at 600 nm.

Compound: CC1(C)S[C@@H]2[C@H](NC(=O)C(C(=O)O)c3ccccc3)C(=O)N2[C@H]1C(=O)O (stereo partly shown) [carbenicillin]
- Oral microbiome isolates susceptible: More than 70%

Compound: NC[C@H]1O[C@H](O[C@H]2[C@H](O)[C@@H](O[C@H]3O[C@H](CO)[C@@H](O)[C@H](N)[C@H]3O)[C@H](N)C[C@@H]2N)[C@H](O)[C@@H](O)[C@@H]1O [kanamycin]
- Microbiome isolates resistant, on average: over 70%

Compound: N[C@@H]1CONC1=O [D-cycloserine]
- Microbiome isolates resistant, on average: over 70%

Compound: O=C(N[C@H](CO)[C@H](O)c1ccc([N+](=O)[O-])cc1)C(Cl)Cl [chloramphenicol]
- Gut microbiome isolates whose growth was prevented: More than 70%

Compound: CC1(C)S[C@@H]2[C@H](NC(=O)Cc3ccccc3)C(=O)N2[C@H]1C(=O)O [penicillin, penicillin G]
- Oral microbiome isolates susceptible: More than 70%

Compound: NCC[C@H](O)C(=O)N[C@@H]1C[C@H](N)[C@@H](O[C@H]2O[C@H](CN)[C@@H](O)[C@H](O)[C@H]2O)[C@H](O)[C@H]1O[C@H]1O[C@H](CO)[C@@H](O)[C@H](N)[C@H]1O [amikacin]
- Microbiome isolates resistant, on average: over 70%

Compound: C[C@H]1COc2c(N3CCN(C)CC3)c(F)cc3c(=O)c(C(=O)O)cn1c23 [levofloxacin]
- Gut microbiome isolates whose growth was prevented: More than 70%
